Among the data in patent publication US12024549 (dated 2024) are oxidative folding yield values, retold here.

The nature of this data set: general procedure: Fmoc solid-phase peptide synthesis; Fmoc-NH-SAL-PEG Resin HL. As to conditions: oxidative folding step.

As to Ac-RGNCAYHKGQLVWCTYH-NH2, the oxidative folding yield is listed as 90% or more.
